{
  "source": "patent US6596498B1",
  "about": "(Osteopharm Inc., priority 1993, dated 2003)",
  "test": "peptide synthesis",
  "conditions": "whole synthesis, HPLC",
  "note": "Ends that are not written are not given here.",
  "data": [
    {"sequence": "GIGKRTNEHTADCKIKPNTLHKKAAETLMVLDQNQP", "values": [
      {"measurement": "purity (crude or final not stated)", "value": 99, "unit": "%"}
    ]}
  ]
}
